We go through six molecules from article PMC9075623.

No constants are given. Whether binding was seen depends on the method and setting. In cells and extracts the contact can be indirect. A yes stands for co-enrichment or nearness to the bait. Other partners may have been found. A no says only that the protein was not detected with the bait. Tags and fused reporters may be left off the sequences shown.

The test has as its target V5-tagged full-length human TSPO^A147T (A147T polymorphism variant) (human). Kind of test: affinity purification with mass spectrometry; V5 antibody IP of mitochondria-enriched fractions of U87MG cells transfected with V5-tagged TSPO^WT or TSPO^A147T (controls: IgG, non-transfected cells); protein G magnetic beads, washes in 50mM HEPES pH 7.5, 140mM NaCl, 0.2% NP40; in-solution trypsin digest, LC-MS/MS, Mascot and Scaffold; 3 biological replicates.

B1: MGST1 (protein, UniProt P10620 1-155)
chain: MVDLTQVMDDEVFMAFASYATIILSKMMLMSTATAFYRLTRKVFANPEDCVAFGKGENAKKYLRTDDRVERVRRAHLNDLENIIPFLGIGLLYSLSGPDPSTAILHFRLFVGARIYHTIAYLTPLPQPNRALSFFVGYGVTLSMAYRLLKSKLYL
As to B1, the binding entry is recorded as “binds”.

B2: mitochondrial import receptor subunit TOM40 homolog (TOMM40) (protein, UniProt O96008 1-361)
chain: MGNVLAASSPPAGPPPPPAPALVGLPPPPPSPPGFTLPPLGGSLGAGTSTSRSSERTPGAATASASGAAEDGACGCLPNPGTFEECHRKCKELFPIQMEGVKLTVNKGLSNHFQVNHTVALSTIGESNYHFGVTYVGTKQLSPTEAFPVLVGDMDNSGSLNAQVIHQLGPGLRSKMAIQTQQSKFVNWQVDGEYRGSDFTAAVTLGNPDVLVGSGILVAHYLQSITPCLALGGELVYHRRPGEEGTVMSLAGKYTLNNWLATVTLGQAGMHATYYHKASDQLQVGVEFEASTRMQDTSVSFGYQLDLPKANLLFKGSVDSNWIVGATLEKKLPPLPLTLALGAFLNHRKNKFQCGFGLTIG
Take B2: the binding result is reported as “no binding”.

B3: trans-2,3 enoyl-CoA reductase (TECR) (protein, UniProt Q9NZ01 1-308)
chain: MKHYEVEILDAKTREKLCFLDKVEPHATIAEIKNLFTKTHPQWYPARQSLRLDPKGKSLKDEDVLQKLPVGTTATLYFRDLGAQISWVTVFLTEYAGPLFIYLLFYFRVPFIYGHKYDFTSSRHTVVHLACICHSFHYIKRLLETLFVHRFSHGTMPLRNIFKNCTYYWGFAAWMAYYINHPLYTPPTYGAQQVKLALAIFVICQLGNFSIHMALRDLRPAGSKTRKIPYPTKNPFTWLFLLVSCPNYTYEVGSWIGFAIMTQCLPVALFSLVGFTQMTIWAKGKHRSYLKEFRDYPPLRMPIIPFLL
On to B3, for which the binding result was “no binding”.

B4: SCAMP3 (protein, UniProt O14828 1-347)
chain: MAQSRDGGNPFAEPSELDNPFQDPAVIQHRPSRQYATLDVYNPFETREPPPAYEPPAPAPLPPPSAPSLQPSRKLSPTEPKNYGSYSTQASAAAATAELLKKQEELNRKAEELDRRERELQHAALGGTATRQNNWPPLPSFCPVQPCFFQDISMEIPQEFQKTVSTMYYLWMCSTLALLLNFLACLASFCVETNNGAGFGLSILWVLLFTPCSFVCWYRPMYKAFRSDSSFNFFVFFFIFFVQDVLFVLQAIGIPGWGFSGWISALVVPKGNTAVSVLMLLVALLFTGIAVLGIVMLKRIHSLYRRTGASFQKAQQEFAAGVFSNPAVRTAAANAAAGAAENAFRAP
As to B4, the binding entry was “binds”.

B5: hexokinase 2 (HK2) (protein, UniProt P52789 1-917)
chain: MIASHLLAYFFTELNHDQVQKVDQYLYHMRLSDETLLEISKRFRKEMEKGLGATTHPTAAVKMLPTFVRSTPDGTEHGEFLALDLGGTNFRVLWVKVTDNGLQKVEMENQIYAIPEDIMRGSGTQLFDHIAECLANFMDKLQIKDKKLPLGFTFSFPCHQTKLDESFLVSWTKGFKSSGVEGRDVVALIRKAIQRRGDFDIDIVAVVNDTVGTMMTCGYDDHNCEIGLIVGTGSNACYMEEMRHIDMVEGDEGRMCINMEWGAFGDDGSLNDIRTEFDQEIDMGSLNPGKQLFEKMISGMYMGELVRLILVKMAKEELLFGGKLSPELLNTGRFETKDISDIEGEKDGIRKAREVLMRLGLDPTQEDCVATHRICQIVSTRSASLCAATLAAVLQRIKENKGEERLRSTIGVDGSVYKKHPHFAKRLHKTVRRLVPGCDVRFLRSEDGSGKGAAMVTAVAYRLADQHRARQKTLEHLQLSHDQLLEVKRRMKVEMERGLSKETHASAPVKMLPTYVCATPDGTEKGDFLALDLGGTNFRVLLVRVRNGKWGGVEMHNKIYAIPQEVMHGTGDELFDHIVQCIADFLEYMGMKGVSLPLGFTFSFPCQQNSLDESILLKWTKGFKASGCEGEDVVTLLKEAIHRREEFDLDVVAVVNDTVGTMMTCGFEDPHCEVGLIVGTGSNACYMEEMRNVELVEGEEGRMCVNMEWGAFGDNGCLDDFRTEFDVAVDELSLNPGKQRFEKMISGMYLGEIVRNILIDFTKRGLLFRGRISERLKTRGIFETKFLSQIESDCLALLQVRAILQHLGLESTCDDSIIVKEVCTVVARRAAQLCGAGMAAVVDRIRENRGLDALKVTVGVDGTLYKLHPHFAKVMHETVKDLAPKCDVSFLQSEDGSGKGAALITAVACRIREAGQR
Take B5: the binding entry is recorded as “no binding”.

B6: 14-3-3 protein subunit tau/theta (YWHAQ), endogenous (protein, UniProt P27348 1-245)
chain: MEKTELIQKAKLAEQAERYDDMATCMKAVTEQGAELSNEERNLLSVAYKNVVGGRRSAWRVISSIEQKTDTSDKKLQLIKDYREKVESELRSICTTVLELLDKYLIANATNPESKVFYLKMKGDYFRYLAEVACGDDRKQTIDNSQGAYQEAFDISKKEMQPTHPIRLGLALNFSVFYYEILNNPELACTLAKTAFDEAIAELDTLNEDSYKDSTLIMQLLRDNLTLWTSDSAGEECDAAEGAEN
On to B6, for which the binding entry is recorded as “no binding”.
